The values that follow are results of earlier work, collected in PMC12805357, “Cooperative ligand binding in a bacterial heme-based oxygen sensor” (The Journal of Biological Chemistry, 2025).

Details of the data set: method as in earlier work. Conditions: myoglobins; ref 7 of the supplement (Faulkner et al., 1995).

Turning to “sperm whale myoglobin (swMb): sperm whale myoglobin, literature comparison protein”, the n max is recorded as 0.9.
